# Laboratory results taken from PubChem BioAssay AID651900 (Broad Institute, 2012).
# Some of the results follow. The main result of the screen is listed elsewhere. These columns were measured beside it and carry no call.
# Assay: NIH3T3 cell viability loss – plate reader, cherry-pick, two tests, cytotoxicity control, dose response (AID 651900)
# Details: test 2 concentration series, at 26 µM
row,SMILES,activity [%]
1,Cc1cc(NC(=O)CN(C)S(=O)(=O)c2cnc[nH]2)ccc1Br,-4.06
2,COc1ccc(Cc2c(-c3ccc(OC)c(OC)c3)nc3ccc(C)cn23)c(C)c1,-1.19
3,O=C(Nc1ccc2snnc2c1)N1CCN(c2ccccc2)CC1,0.698
4,CCc1c(C(=O)NCCc2ccc(OC)c(OC)c2)[nH]c(C)c1C(C)=O,-5.77
5,CCCc1c(OCCCOc2ccc(OCC(=O)O)cc2)ccc(C(C)=O)c1O,2.08
6,Fc1ccc(-c2ccc3c(c2)C2CC3CCN2)cc1 (centres undefined),-2.07
7,Cc1cc2c(c(=O)n1Cc1cccnc1)C(c1cccs1)C(C#N)=C(N)O2 (centres undefined),7.76
8,Cc1nn(CCC(=O)O)c2nc(-c3cccnc3)cc(C(F)(F)F)c12,-0.527
9,CN(C(=O)CSc1nc2ccccc2c(=O)n1-c1ccccc1Cl)C1CCS(=O)(=O)C1 (centres undefined),0.744
10,O=C(C1CCCN(S(=O)(=O)c2cccnc2)C1)N1CCn2c1nc1ccccc12 (centres undefined),2.3
11,C=CCn1c(COc2ccccc2F)nnc1SCCN1C(=O)c2ccccc2C1=O,0.412
12,COc1cc(C(=O)Nc2cccnc2)cc(OC)c1OC,-9.69
13,COc1cc(-c2n[nH]c(=S)n2-c2cccc(C(F)(F)F)c2)cc(OC)c1OC,-6.09
14,O=C(O)CN1C(=O)/C(=C\c2cc(Br)ccc2OCc2ccc([N+](=O)[O-])cc2)SC1=S,8.45
15,Cc1cnc(C(=O)NC2CC(C)(C)Cc3c2cnn3-c2cccc(F)c2)cn1 (centres undefined),2.96
16,CC(=O)Nc1ccc2nc(-c3cccnc3)[nH]c2c1,2.57
17,Cc1cccc(-n2c(SCC(=O)N(C)C3CCS(=O)(=O)C3)nc3ccccc3c2=O)c1C (centres undefined),4.22

row,SMILES,activity [%]
1,COc1ccc(C(=O)Nc2ccc(Cn3ccnc3)cc2)cc1OC,2.9
2,COc1ccc(C(C)NC(=O)Nc2ccc(C(C)=O)cc2)cc1OC (centres undefined),4.98
3,Cc1nc2nc(SCC(=O)N3CCOCC3)nn2c(C)c1Cc1c(F)cccc1Cl,-13.1
4,COc1cc2cnc(-c3cccnc3)cc2cc1OC,-0.533
5,COC(=O)C1CCN(C(c2ccc(OC)c(OC)c2)c2sc3nc(C)nn3c2O)CC1 (centres undefined),-7.29
6,CCOC(=O)C1(CCc2ccccc2)CCN(C(=O)CN2CCOC2=O)CC1,8.7
7,Cn1nnc2cc(C(=O)Nc3cccnc3)ccc21,2.21
8,Cc1cccc(-c2nnc(SCC#N)n2-c2ccccc2)c1,-4.8
9,CC(=O)c1ccc(N2CCN(C(=O)c3ccc(Br)cc3)CC2)c(F)c1,2.12
10,COc1ccc(C2c3c(oc4ccc(Cl)cc4c3=O)C(=O)N2CCN2CCOCC2)cc1 (centres undefined),5.86
11,CC(Oc1ccc2ccc(=O)oc2c1)C(=O)N1CCOCC1 (centres undefined),-8.9
12,CCOC(=O)c1c(C)[n+](-c2ccc(C)cc2)c(CC)c2cc(OC)c(OC)cc12,-2.52
13,O=C(O)CSc1ncnc2scc(-c3ccc(Br)cc3)c12,-3.07
14,COc1cc(/C=C/C(=O)Nc2cccnc2)cc(OC)c1OC,-2.55
15,CN1CCN(c2ncnc3c2[nH]c2ccc(F)cc23)CC1,-5.32
16,Cc1cc(C(=O)NC2CC(C)(C)Cc3c2cnn3-c2cccc(F)c2)nn1C (centres undefined),-8.34
17,Cc1ccc(-c2nnc(N3CCN(C(=O)CSc4ncn[nH]4)CC3)c3ccccc23)cc1,-0.687

# Molecules above with a thiophene ring, fused or not (two):
row,SMILES,activity [%]
7,Cc1cc2c(c(=O)n1Cc1cccnc1)C(c1cccs1)C(C#N)=C(N)O2 (centres undefined),7.76
13,O=C(O)CSc1ncnc2scc(-c3ccc(Br)cc3)c12,-3.07
